## Melanoma cell counts after drug treatment

Values as published with doi:10.1371/journal.pone.0140310, rounded.

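Human melanoma cells were exposed to two drugs together for 72 h in 1,536-well plates and read by automated microscopy after fixing and staining. The read-out is cell count (nuclei) in % of the DMSO control; lower values mean stronger growth inhibition or killing. Concentrations were fixed for each drug; these are the lower of two levels, a fifth of the higher. No replicate spread is given; individual values may be noisy.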
Only some of the drugs and lines screened are listed, without regard to their results.
An entry leaves out what has no value listed here.

Drugs:
perifosine: CCCCCCCCCCCCCCCCCCOP(=O)([O-])OC1CC[N+](C)(C)CC1 at 0.4 µM
tozasertib: Cc1cc(Nc2cc(N3CCN(C)CC3)nc(Sc3ccc(NC(=O)C4CC4)cc3)n2)n[nH]1 at 0.006 µM
ABT-263: CC1(C)CCC(c2ccc(Cl)cc2)=C(CN2CCN(c3ccc(C(=O)NS(=O)(=O)c4ccc(N[C@H](CCN5CCOCC5)CSc5ccccc5)c(S(=O)(=O)C(F)(F)F)c4)cc3)CC2)C1 at 0.4 µM
enzastaurin: Cn1cc(C2=C(c3cn(C4CCN(Cc5ccccn5)CC4)c4ccccc34)C(=O)NC2=O)c2ccccc21 at 0.8 µM
lapatinib: CS(=O)(=O)CCNCc1ccc(-c2ccc3ncnc(Nc4ccc(OCc5cccc(F)c5)c(Cl)c4)c3c2)o1 at 0.8 µM
dovitinib: CN1CCN(c2ccc3nc(-c4c(N)c5c(F)cccc5[nH]c4=O)[nH]c3c2)CC1 at 0.1 µM
FK866: O=C(/C=C/c1cccnc1)NCCCCC1CCN(C(=O)c2ccccc2)CC1 at 0.01 µM
veliparib: C[C@]1(c2nc3c(C(N)=O)cccc3[nH]2)CCCN1 at 1.4 µM

With ABT-263 and perifosine the screen read A101D: 48.4; G-361: 92.6; A2058: 86.1; COLO 829: 103; LB2518-MEL: 121; IPC-298: 91.9; A375: 29.5.
With FK866 and tozasertib the screen read A101D: 98.2; G-361: 13.8; A2058: 95.2; COLO 829: 73.8; LB2518-MEL: 103; IPC-298: 42.4; A375: 76.5.
With veliparib and tozasertib the screen read A101D: 81.3; G-361: 82.4; A2058: 90.0; COLO 829: 77.1; LB2518-MEL: 101; IPC-298: 98.8; A375: 87.5.
With perifosine and dovitinib the screen read A101D: 101; G-361: 96.4; A2058: 101; COLO 829: 92.5; LB2518-MEL: 98.1; IPC-298: 96.3; A375: 76.1.
With ABT-263 and lapatinib the screen read A101D: 43.2; G-361: 94.8; A2058: 95.0; COLO 829: 118; LB2518-MEL: 81.5; IPC-298: 97.0; A375: 67.3.
With enzastaurin and dovitinib the screen read A101D: 88.6; G-361: 86.3; A2058: 97.3; COLO 829: 105; LB2518-MEL: 92.5; IPC-298: 108; A375: 88.7.
With enzastaurin and lapatinib the screen read A101D: 82.8; G-361: 96.9; A2058: 95.0; COLO 829: 82.6; LB2518-MEL: 98.2; IPC-298: 91.9; A375: 93.9.
With enzastaurin and perifosine the screen read A101D: 99.0; G-361: 114; A2058: 102; COLO 829: 133; LB2518-MEL: 111; IPC-298: 93.4; A375: 72.9.
With FK866 and enzastaurin the screen read A101D: 104; G-361: 10.6; A2058: 108; COLO 829: 79.3; LB2518-MEL: 81.7; IPC-298: 42.4; A375: 60.6.
With lapatinib and perifosine the screen read A101D: 114; G-361: 127; A2058: 104; COLO 829: 83.9; LB2518-MEL: 111; IPC-298: 101; A375: 94.0.
With perifosine and veliparib the screen read A101D: 97.2; G-361: 103; A2058: 82.1; COLO 829: 85.9; LB2518-MEL: 95.4; IPC-298: 90.4; A375: 54.3.
With veliparib and dovitinib the screen read A101D: 90.9; G-361: 109; A2058: 76.3; COLO 829: 71.2; LB2518-MEL: 85.6; IPC-298: 91.7; A375: 75.8.
With veliparib and FK866 the screen read A101D: 104; G-361: 10.2; A2058: 79.0; COLO 829: 63.0; LB2518-MEL: 84.4; IPC-298: 49.2; A375: 86.3.
With veliparib and enzastaurin the screen read A101D: 88.4; G-361: 82.2; A2058: 87.5; COLO 829: 92.2; LB2518-MEL: 95.5; IPC-298: 104; A375: 74.8.
With tozasertib and ABT-263 the screen read A101D: 42.5; G-361: 77.9; A2058: 89.6; COLO 829: 91.2; LB2518-MEL: 68.1; IPC-298: 105; A375: 76.5.
With perifosine and tozasertib the screen read A101D: 93.3; G-361: 94.3; A2058: 102; COLO 829: 94.3; LB2518-MEL: 116; IPC-298: 99.2; A375: 92.8.
With veliparib and ABT-263 the screen read A101D: 50.0; G-361: 83.3; A2058: 74.8; COLO 829: 85.8; LB2518-MEL: 74.3; IPC-298: 93.3; A375: 63.6.
With lapatinib and veliparib the screen read A101D: 91.1; G-361: 72.8; A2058: 92.9; COLO 829: 73.1; IPC-298: 90.9; A375: 68.5.
With ABT-263 and dovitinib the screen read G-361: 71.1; COLO 829: 95.9; LB2518-MEL: 80.9; IPC-298: 94.0.
With lapatinib and FK866 the screen read A101D: 91.3; G-361: 5.9; A2058: 99.2; COLO 829: 75.0; LB2518-MEL: 77.0; IPC-298: 37.7; A375: 129.
With FK866 and ABT-263 the screen read A101D: 53.3; G-361: 3.7; A2058: 113; COLO 829: 62.8; LB2518-MEL: 63.3; IPC-298: 23.9; A375: 67.6.

Repeated from the top, 2 entries:

{"pair": "ABT-263 and perifosine", "A101D": 48.4, "G-361": 92.6, "A2058": 86.1, "COLO 829": 103, "LB2518-MEL": 121, "IPC-298": 91.9, "A375": 29.5}
{"pair": "FK866 and tozasertib", "A101D": 98.2, "G-361": 13.8, "A2058": 95.2, "COLO 829": 73.8, "LB2518-MEL": 103, "IPC-298": 42.4, "A375": 76.5}